Test results taken from the supplement of paper PMC12067093, “Discovery and optimisation of a covalent ligand for TRIM25 and its application to targeted protein ubiquitination” (Chemical Science, 2025).
The other results are listed elsewhere or left out.

By UniProt entry, the sequences of proteins in these tests, tags left out. Where a name states a change or a piece, a line headed by the entry shows the natural chain unless it says otherwise.
UniProt Q9H974: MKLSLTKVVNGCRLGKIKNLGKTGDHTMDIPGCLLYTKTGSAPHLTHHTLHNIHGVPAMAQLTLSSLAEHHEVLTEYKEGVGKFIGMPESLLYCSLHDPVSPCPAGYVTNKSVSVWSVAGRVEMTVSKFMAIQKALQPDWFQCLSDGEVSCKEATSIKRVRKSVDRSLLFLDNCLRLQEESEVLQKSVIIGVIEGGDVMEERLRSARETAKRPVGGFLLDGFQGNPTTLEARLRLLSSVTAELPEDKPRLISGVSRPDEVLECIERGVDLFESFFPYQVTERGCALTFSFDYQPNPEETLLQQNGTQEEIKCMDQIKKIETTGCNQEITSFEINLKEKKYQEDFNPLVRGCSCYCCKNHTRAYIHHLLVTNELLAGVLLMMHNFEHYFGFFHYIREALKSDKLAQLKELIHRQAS
UniProt Q9UJ41, whole entry, looked up: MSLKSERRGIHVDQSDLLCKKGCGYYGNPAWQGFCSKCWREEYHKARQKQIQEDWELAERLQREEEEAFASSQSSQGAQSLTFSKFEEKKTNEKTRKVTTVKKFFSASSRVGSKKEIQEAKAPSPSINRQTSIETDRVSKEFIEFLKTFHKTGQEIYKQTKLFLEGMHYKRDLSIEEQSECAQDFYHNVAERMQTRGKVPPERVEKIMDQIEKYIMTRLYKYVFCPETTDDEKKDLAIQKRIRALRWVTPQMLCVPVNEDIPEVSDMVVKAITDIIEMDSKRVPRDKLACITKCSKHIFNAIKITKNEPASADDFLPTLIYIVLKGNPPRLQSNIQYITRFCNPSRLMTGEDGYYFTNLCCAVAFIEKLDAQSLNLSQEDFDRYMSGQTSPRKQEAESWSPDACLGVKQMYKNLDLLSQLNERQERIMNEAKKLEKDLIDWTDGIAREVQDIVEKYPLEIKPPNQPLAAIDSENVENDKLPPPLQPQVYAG
UniProt Q9BXR0: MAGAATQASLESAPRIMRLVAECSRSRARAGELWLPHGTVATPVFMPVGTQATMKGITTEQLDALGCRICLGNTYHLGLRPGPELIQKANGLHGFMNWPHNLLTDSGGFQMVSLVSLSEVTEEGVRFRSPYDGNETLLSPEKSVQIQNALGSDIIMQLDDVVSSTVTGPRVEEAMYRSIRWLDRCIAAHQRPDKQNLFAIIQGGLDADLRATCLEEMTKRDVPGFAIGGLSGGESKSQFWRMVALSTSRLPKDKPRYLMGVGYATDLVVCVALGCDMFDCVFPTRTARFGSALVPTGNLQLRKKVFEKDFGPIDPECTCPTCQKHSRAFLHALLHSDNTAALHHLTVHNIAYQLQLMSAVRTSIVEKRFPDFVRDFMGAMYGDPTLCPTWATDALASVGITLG
UniProt Q9H0R6: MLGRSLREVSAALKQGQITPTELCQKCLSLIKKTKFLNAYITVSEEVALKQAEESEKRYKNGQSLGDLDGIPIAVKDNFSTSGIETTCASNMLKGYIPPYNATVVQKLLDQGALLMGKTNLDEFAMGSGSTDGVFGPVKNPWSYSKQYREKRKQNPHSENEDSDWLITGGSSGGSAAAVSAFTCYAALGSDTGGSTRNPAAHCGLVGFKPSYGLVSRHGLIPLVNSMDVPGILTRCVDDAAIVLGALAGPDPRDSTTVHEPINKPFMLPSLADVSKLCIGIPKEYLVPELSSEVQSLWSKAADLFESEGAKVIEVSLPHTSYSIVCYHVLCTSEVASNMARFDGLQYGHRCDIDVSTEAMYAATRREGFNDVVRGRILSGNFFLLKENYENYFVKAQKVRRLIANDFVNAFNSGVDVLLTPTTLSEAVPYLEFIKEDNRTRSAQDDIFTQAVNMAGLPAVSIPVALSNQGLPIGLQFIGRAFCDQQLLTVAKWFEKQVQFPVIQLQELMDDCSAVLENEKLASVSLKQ
UniProt Q15274: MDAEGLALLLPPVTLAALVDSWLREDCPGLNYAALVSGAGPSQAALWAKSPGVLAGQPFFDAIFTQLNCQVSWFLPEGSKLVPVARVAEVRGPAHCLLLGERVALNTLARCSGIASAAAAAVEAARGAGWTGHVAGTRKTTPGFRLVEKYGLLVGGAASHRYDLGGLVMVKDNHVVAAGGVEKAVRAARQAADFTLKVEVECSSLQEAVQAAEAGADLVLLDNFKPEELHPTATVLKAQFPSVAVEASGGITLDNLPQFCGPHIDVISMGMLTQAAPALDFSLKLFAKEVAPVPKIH
UniProt P51149, whole entry, looked up: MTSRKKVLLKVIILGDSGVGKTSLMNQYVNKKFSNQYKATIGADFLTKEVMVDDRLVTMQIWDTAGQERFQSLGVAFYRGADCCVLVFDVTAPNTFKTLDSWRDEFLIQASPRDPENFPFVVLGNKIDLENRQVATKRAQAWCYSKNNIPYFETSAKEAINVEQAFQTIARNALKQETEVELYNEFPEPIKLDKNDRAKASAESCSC
UniProt P61106, whole entry, looked up: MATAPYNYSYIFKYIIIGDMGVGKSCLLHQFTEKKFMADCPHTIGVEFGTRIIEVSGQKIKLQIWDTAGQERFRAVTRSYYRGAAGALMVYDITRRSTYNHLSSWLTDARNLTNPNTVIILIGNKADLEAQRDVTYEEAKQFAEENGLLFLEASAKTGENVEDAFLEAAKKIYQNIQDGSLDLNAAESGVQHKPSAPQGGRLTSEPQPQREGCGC
UniProt P61018: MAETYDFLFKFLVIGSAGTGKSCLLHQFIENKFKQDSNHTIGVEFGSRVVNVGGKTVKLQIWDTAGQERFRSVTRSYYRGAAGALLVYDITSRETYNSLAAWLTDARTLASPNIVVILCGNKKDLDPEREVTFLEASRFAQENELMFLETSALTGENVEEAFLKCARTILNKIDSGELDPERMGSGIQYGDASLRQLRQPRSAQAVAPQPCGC
UniProt Q15042: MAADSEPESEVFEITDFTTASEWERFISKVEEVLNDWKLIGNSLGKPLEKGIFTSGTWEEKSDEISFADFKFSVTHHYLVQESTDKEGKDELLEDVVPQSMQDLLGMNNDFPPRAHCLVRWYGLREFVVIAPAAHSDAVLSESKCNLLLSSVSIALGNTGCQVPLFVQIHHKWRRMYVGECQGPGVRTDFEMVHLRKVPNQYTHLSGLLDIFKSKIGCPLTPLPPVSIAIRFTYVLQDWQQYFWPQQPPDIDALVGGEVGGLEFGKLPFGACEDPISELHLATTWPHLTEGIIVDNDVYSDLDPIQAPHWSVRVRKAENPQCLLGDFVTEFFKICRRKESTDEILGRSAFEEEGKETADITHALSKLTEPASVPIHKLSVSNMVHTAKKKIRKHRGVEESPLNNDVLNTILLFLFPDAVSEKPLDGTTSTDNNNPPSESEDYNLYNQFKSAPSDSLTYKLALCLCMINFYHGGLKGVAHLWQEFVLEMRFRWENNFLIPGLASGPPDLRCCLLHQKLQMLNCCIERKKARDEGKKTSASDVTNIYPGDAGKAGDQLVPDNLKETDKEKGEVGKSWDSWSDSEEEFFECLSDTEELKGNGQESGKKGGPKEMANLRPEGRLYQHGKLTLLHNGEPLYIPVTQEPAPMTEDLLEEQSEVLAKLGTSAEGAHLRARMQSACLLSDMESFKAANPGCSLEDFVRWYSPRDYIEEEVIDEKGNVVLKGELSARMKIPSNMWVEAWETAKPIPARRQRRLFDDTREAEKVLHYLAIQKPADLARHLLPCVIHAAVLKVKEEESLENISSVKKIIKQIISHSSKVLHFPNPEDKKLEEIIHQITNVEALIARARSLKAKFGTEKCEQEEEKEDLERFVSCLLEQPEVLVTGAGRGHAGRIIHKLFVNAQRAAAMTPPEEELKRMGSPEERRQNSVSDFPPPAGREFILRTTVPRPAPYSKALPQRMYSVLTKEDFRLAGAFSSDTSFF
UniProt Q3YEC7: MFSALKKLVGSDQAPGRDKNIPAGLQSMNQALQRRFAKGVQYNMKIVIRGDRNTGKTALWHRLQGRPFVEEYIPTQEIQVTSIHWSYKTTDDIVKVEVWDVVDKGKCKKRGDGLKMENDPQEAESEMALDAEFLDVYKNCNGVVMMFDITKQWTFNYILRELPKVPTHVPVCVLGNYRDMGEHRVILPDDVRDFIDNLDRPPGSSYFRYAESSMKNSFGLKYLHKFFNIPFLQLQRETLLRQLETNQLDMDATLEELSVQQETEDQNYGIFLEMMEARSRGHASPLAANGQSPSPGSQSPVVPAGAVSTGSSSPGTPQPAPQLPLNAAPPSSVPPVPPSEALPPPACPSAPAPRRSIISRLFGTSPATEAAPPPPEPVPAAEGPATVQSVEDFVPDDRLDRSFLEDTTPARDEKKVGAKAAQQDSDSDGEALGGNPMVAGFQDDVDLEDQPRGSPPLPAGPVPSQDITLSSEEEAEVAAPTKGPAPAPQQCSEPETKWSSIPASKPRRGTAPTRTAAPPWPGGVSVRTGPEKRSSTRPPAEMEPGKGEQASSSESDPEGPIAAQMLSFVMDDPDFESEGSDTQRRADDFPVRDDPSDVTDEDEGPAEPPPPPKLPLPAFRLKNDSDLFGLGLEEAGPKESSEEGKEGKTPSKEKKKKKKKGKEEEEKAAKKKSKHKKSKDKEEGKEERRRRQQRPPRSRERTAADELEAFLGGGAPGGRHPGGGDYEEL
UniProt P61026: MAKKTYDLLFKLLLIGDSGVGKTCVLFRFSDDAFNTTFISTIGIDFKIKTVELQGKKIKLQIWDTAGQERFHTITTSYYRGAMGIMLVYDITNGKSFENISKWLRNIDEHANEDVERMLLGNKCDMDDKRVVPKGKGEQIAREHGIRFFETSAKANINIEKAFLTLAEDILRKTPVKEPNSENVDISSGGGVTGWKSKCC

Compound: Cc1cc(ccc1-c1ccccc1)C(=O)N1CCCN(CC1)C(=O)CCl [compound 10]
Test: probe-labelled cysteine peptide fold change vs DMSO (competition) (log2 fold change); higher = less target engagement (more negative = stronger competition)
Details: THP-1, incubation time: 4 h
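Note: competitive profiling in live THP-1 cells: cysteine peptides tagged with an iodoacetamide desthiobiotin (IA-DTB) probe, intensity after compound treatment relative to DMSO-treated cells.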

Target	probe-labelled cysteine peptide fold change (10 µM)	probe-labelled cysteine peptide fold change (50 µM)
RAI14_Q9P0K7_168_DLDGNIPLLLAVQNGHSEICHFLLDHGADVNSR (UniProt Q9P0K7)	0.337	-0.107
QTRT2_Q9H974_174_SLLFLDNCLR (UniProt Q9H974)	0.232	0.283
RABGEF1_Q9UJ41_359_RDLSIEEQSECAQDFYHNVAER (UniProt Q9UJ41)	0.126	0.791
QTRT1_Q9BXR0_319_DFGPIDPECTCPTCQK (UniProt Q9BXR0)	-0.262	-0.146
QRSL1_Q9H0R6_278_LCIGIPK (UniProt Q9H0R6)	0.155	0.0481
QPRT_Q15274_111_CSGIASAAAAAVEAAR (UniProt Q15274)	0.0437	0.072
RAB7A_P51149_143_AQAWCYSK (UniProt P51149)	-0.153	-0.0979
QPRT_Q15274_96_GPAHCLLLGER (UniProt Q15274)	0.0694	0.0165
RAB14_P61106_40_FMADCPHTIGVEFGTR (UniProt P61106)	0.0726	-0.0566
RAB4B_P61018_23_SCLLHQFIENK (UniProt P61018)	-0.182	-0.0236
RAB3GAP1_Q15042_181_MYVGECQGPGVR (UniProt Q15042)	0.0634	0.19
RABL6_Q3YEC7_140_NCNGVVMMFDITK (UniProt Q3YEC7)	0.055	0.0746
RAB10_P61026_124_CDMDDK (UniProt P61026)	-0.104	0.0844
PWP1_Q13610_154_DTEQYEREDFLIKPSDNLIVCGR (UniProt Q13610)	0.0705	-0.671

In a second layout: results already given
Target | probe-labelled cysteine peptide fold change (10 µM) | probe-labelled cysteine peptide fold change (50 µM)
RABL6_Q3YEC7_140_NCNGVVMMFDITK (UniProt Q3YEC7) | 0.055 | 0.0746
RAB10_P61026_124_CDMDDK (UniProt P61026) | -0.104 | 0.0844
